Assay results from paper PMC10286715.
These are yes or no findings as the source states them, for the method shown. In cells and extracts the contact can be indirect.

Amino acid sequences for entries named in this document (tags omitted). Residues count along the entry.
UniProt P02769, residues 25-607: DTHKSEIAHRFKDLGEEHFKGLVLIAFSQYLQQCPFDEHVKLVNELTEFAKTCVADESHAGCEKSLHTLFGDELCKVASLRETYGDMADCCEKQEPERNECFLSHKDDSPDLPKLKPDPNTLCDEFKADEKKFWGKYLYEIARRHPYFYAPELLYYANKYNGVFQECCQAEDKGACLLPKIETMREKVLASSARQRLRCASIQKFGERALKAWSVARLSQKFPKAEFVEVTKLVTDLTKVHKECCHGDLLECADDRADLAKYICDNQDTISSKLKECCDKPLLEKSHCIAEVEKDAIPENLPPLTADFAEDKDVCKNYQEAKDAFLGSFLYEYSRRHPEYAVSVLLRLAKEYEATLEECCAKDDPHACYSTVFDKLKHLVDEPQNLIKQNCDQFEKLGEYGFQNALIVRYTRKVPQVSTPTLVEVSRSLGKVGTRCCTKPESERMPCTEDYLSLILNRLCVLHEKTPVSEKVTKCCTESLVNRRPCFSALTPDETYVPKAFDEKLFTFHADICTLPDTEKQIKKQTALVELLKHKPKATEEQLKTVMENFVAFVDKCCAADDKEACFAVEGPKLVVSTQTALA
UniProt A0ABM5R182: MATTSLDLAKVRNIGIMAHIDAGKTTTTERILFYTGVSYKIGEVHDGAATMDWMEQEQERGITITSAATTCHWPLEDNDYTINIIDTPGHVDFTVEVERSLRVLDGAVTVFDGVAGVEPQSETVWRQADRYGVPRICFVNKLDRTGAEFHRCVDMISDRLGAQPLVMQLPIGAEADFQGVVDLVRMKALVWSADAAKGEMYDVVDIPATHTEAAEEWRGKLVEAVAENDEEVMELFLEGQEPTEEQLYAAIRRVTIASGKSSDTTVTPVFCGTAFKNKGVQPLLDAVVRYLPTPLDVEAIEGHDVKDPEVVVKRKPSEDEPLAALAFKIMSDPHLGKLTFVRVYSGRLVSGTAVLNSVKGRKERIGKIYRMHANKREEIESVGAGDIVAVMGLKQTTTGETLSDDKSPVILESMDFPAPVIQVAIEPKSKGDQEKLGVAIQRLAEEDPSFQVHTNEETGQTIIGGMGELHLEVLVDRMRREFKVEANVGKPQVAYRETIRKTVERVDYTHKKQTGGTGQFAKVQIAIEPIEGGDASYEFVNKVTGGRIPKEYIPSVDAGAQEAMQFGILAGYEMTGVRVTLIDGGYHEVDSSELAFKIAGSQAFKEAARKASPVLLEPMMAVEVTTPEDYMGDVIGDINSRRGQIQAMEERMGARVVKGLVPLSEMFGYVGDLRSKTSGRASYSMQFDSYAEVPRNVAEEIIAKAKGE
UniProt A0ABN4DRJ1: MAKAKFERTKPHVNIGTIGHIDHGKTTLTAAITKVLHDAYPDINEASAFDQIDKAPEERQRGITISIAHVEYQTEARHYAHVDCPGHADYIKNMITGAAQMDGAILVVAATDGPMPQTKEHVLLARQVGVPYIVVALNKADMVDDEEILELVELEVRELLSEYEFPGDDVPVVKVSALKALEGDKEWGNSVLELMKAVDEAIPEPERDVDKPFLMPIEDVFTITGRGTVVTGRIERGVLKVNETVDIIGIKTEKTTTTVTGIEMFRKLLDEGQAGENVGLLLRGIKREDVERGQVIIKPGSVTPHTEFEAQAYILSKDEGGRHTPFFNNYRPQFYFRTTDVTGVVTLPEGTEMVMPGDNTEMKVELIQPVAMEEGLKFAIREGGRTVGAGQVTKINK

Biological target: bovine serum albumin labeled with sulfo-SBED (bovine) (UniProt P02769)
Test: cross-linking; sulfo-SBED-labeled purified bait mixed with S. lividans TK23 lysate, room temperature 5 min, UV 365 nm; S-S bond cleaved with 100 mM 2-mercaptoethanol; biotin-labeled prey captured on a streptavidin column, eluted with 0.1 M glycine pH 2.5; SDS-PAGE (CBB), streptavidin-HRP blot, MALDI-TOF peptide mass fingerprinting; only the target purified

binding	Substance
no binding	elongation factor G1 (from UniProt A0ABM5R182 1-708)
no binding	elongation factor Tu1 (from UniProt A0ABN4DRJ1 1-397)
